According to PubChem BioAssay AID493014 (National Center for Advancing Translational Sciences (NCATS), 2011):
The other results are listed elsewhere or left out. These are further read-outs of the screen, such as a control signal, another cell line or another target. No call is given for them. The list favours compounds with an active or inconclusive main result. Words in brackets tell the shape of the fitted curve; partial curves, single points and poor fits give uncertain potencies.

Experiment: qHTS Assay to Find Inhibitors of Chronic Active B-Cell Receptor Signaling
Conditions: ABC-DLBCL IkBa-CBG/CBR reporter, luminescence ratio (green luciferase fused to IkBa over red control in TMD8 lymphoma cells), 4 h
Procedure, shortened: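 Concentration-response series (up to 46 uM) were applied to TMD8 dual-reporter cells for 4 h at 37C with doxycycline. Green/red ratio, after filter-overlap correction, defined %Activity; red signal alone was normalised to basal cells and zero luminescence.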

[1] = measured here: CBR red luminescence, cell number
[2] = measured here: IkBa-CBG green luminescence

SMILES	AC50 [1]	AC50 [2]
Cc1nc(-c2ccccc2)sc1C(=O)CSc1ccccc1	9.2 µM [rising, partial curve]	1.16 µM [rising, full curve, poor fit]
COc1ccc(C2C(O)C(c3c[nH]c4ccccc34)=NN2C(=O)CCl)cc1 (centres undefined)	10 µM [falling, partial curve]	
CNC(=S)N/N=C/c1ccccc1Cl	18.4 µM [rising, partial curve, poor fit]	
O=C(Nc1ncc2c(n1)-c1ccccc1CC2)C1CC1	20 µM [falling, partial curve, poor fit]	
COc1cc([N+](=O)[O-])c2nccnc2c1	35.5 µM [rising, single point]	
Cc1ccc(-n2cccc2/C=C2\C(=N)N3N=C(C(C)C)SC3=NC2=O)cc1	1.78 µM [rising, full curve, poor fit]	
Cc1cc(=O)n2c(n1)NC(Nc1cccc(C)c1C)=NC2c1ccc(F)cc1 (centres undefined)	11.2 µM [falling, partial curve, poor fit]	
CCOc1ccc(NC(=O)c2cccnc2SC)cc1	20 µM [falling, partial curve]	
Cc1cccc(NC(=S)NNC(=O)CCn2cc(C)cn2)c1	7.08 µM [rising, full curve]	7.08 µM [falling, partial curve]
O=C(c1ccccc1)n1ccc2ccccc21	5.01 µM [rising, single point]	
COc1cc(SC)ccc1C(=O)NCCOc1ccccc1Cl	3.55 µM [rising, single point]	
CC(=O)N1CCN(C(=O)c2cc(=O)c3ccccc3o2)CC1	14.1 µM [falling, partial curve, poor fit]	
CCOc1ccccc1NC(=O)COn1nnc2ccccc21	2.06 µM [falling, full curve, poor fit]	
COc1ccc(OC)c(/C=N/N(C)c2ccccc2)c1	4.11 µM [rising, single point]	
Cc1nc(C)c(-c2csc(Nc3cccc(O)c3)n2)s1	1.26 µM [rising, full curve, poor fit]	
COc1ccc(CNC(=O)Cc2ccc(NC(=O)C3=C(C)OCCS3)cc2)cc1		11.2 µM [falling, partial curve, poor fit]
O=C(NCc1ccc2c(c1)OCO2)c1cc([N+](=O)[O-])ccc1N1CCCCC1		16.4 µM [falling, partial curve, poor fit]
Fc1ccc(-n2nnc(-c3nccs3)n2)cc1	35.5 µM [falling, single point]	
COCCn1ccc2c(OCC(=O)Nc3cccc(OC)c3)cccc2c1=O	10 µM [falling, partial curve, poor fit]	
Cc1ccc(Cl)cc1N1CCN(C(=O)COc2ccc(S(=O)(=O)NC(C)C)cc2)CC1	8.2 µM [falling, partial curve, poor fit]	
O=C(Nc1ccc(Cl)cc1)N1CCN(c2ncccn2)CC1	14.1 µM [falling, partial curve, poor fit]	
Cc1nc2ccccc2n1CC(=O)NN	22.4 µM [rising, partial curve, poor fit]	

Random excerpt: three entries already listed
SMILES	AC50 [1]	AC50 [2]
Cc1ccc(Cl)cc1N1CCN(C(=O)COc2ccc(S(=O)(=O)NC(C)C)cc2)CC1	8.2 µM [falling, partial curve, poor fit]	
O=C(c1ccccc1)n1ccc2ccccc21	5.01 µM [rising, single point]	
Cc1cc(=O)n2c(n1)NC(Nc1cccc(C)c1C)=NC2c1ccc(F)cc1 (centres undefined)	11.2 µM [falling, partial curve, poor fit]	

(listing goes on)

SMILES	AC50 [1]	AC50 [2]
O=C1CCc2cc(S(=O)(=O)NC(Cc3ccccc3)C(=O)NC3CCCCC3)ccc2N1 (centres undefined)	32.6 µM [falling, single point]	
Cc1c(O)ccc2c3c(c(=O)oc12)CCC(C)C3 (centres undefined)	6.31 µM [rising, partial curve, poor fit]	
CC(=O)c1ccc(S(=O)(=O)Nc2cccc(-c3ccc4nncn4n3)c2)cc1	15.8 µM [rising, single point]	
COc1ccc(NC(=O)C2Cc3cccc(OC)c3O/C2=N\O)cc1 (centres undefined)	8.91 µM [falling, partial curve]	
N/C(=N\OC(=O)c1cccc(Br)c1)c1ccncc1	1.41 µM [rising, partial curve, poor fit]	
C/C(CC(=O)Nc1ccc2c(c1)OCCO2)=N\NC(=O)c1ccccc1Cl	10 µM [falling, partial curve, poor fit]	
COc1ccc(-c2cc(C(=O)Nc3cccnc3)c3ccccc3n2)cc1OC	35.5 µM [falling, single point]	
CCN1CCN(CC(=O)N2N=C(c3cccs3)CC2c2ccc(F)cc2)C(=O)C1=O (centres undefined)	8.91 µM [rising, partial curve, poor fit]	
CCCNc1nc(C)nc2c1cnn2CCc1ccccc1	18.4 µM [falling, single point]	
O=C(CC1SC(=O)NC1=O)Oc1ccc(/C=N/NC(=O)c2ccccc2O)cc1 (centres undefined)	3.55 µM [falling, partial curve]	
CC(=O)c1sc(-c2ccccc2)cc1NS(=O)(=O)c1ccccc1	7.08 µM [rising, partial curve, poor fit]	
O=C(COC(=O)Cc1cccc2ccccc12)Nc1ccccc1-c1ccccc1	29.1 µM [falling, single point]	
CCOc1cccc2cc(-c3nc4ccc(C(=O)O)cc4[nH]3)c(=O)oc12	0.0411 µM [falling, full curve]	
COc1ccc([N+](=O)[O-])cc1NS(=O)(=O)c1cc(C(=O)O)ccc1OC	14.1 µM [falling, partial curve, poor fit]	
CCc1ccc(NS(=O)(=O)c2ccc3[nH]cc(C(=O)NCC4CCCO4)c(=O)c3c2)cc1 (centres undefined)	0.794 µM [rising, full curve, poor fit]	
Clc1ccc(-c2cc(C3CCNCC3)[nH]n2)c(Cl)c1	35.5 µM [falling, single point]	
O=[N+]([O-])c1ccc(O)c(C(C#Cc2ccccc2)N2CCOCC2)c1 (centres undefined)	15.8 µM [falling, single point]	
Cc1ccc(SCc2nc(-c3ccccc3)no2)cc1	0.0731 µM [rising, full curve, poor fit]	
Cc1cc(S(=O)(=O)Nc2ccc3cn[nH]c3c2)c(C)cc1Cl	3.16 µM [falling, partial curve, poor fit]	
NS(=O)(=O)c1ccc(NNC(=O)c2ccc(F)cc2F)cc1	0.112 µM [falling, full curve, poor fit]	
O=C(NC(=S)NNC(=O)c1cccs1)c1ccc(Br)o1	13 µM [falling, partial curve, poor fit]	
O=C(Nc1ccc(Cn2nnc3ccccc32)cc1)c1ccco1	11.2 µM [rising, partial curve, poor fit]	

SMILES	AC50 [1]	AC50 [2]
OC(C#Cc1ccccn1)c1cccs1 (centres undefined)	6.31 µM [falling, full curve]	0.631 µM [falling, partial curve, poor fit]
O=C(Nc1ccccc1O)c1c(O)c2c([nH]c1=O)CCCC2	14.1 µM [falling, partial curve]	
O=C(CSc1cn[nH]n1)Nc1ccccc1C(=O)O	11.2 µM [falling, partial curve]	
Cc1ccc(S(=O)(=O)Nc2cccc(C(=O)Nc3cc(C)ccn3)c2)cc1	20.6 µM [falling, single point]	
CCOC(=O)C1C(=O)C(C(C)=O)C(=O)CC1CC(C)SCC (centres undefined)	7.31 µM [falling, single point]	
O=C(NC(NC(=S)Nc1c(Cl)cccc1Cl)C(Cl)(Cl)Cl)c1cccc([N+](=O)[O-])c1 (centres undefined)	29.1 µM [falling, single point]	20.6 µM [rising, partial curve, poor fit]
Cc1cc(=O)oc(C)c1C(=O)Nc1ccc2ncccc2c1	25.9 µM [rising, single point]	
COc1ccccc1NC(=O)COc1ccc(C(=O)OCC(=O)N(C(C)C)C(C)C)cc1OC	0.461 µM [rising, full curve, poor fit]	
C/C(=N\NC(=O)c1ccc(CN2CCOCC2)cc1)c1ccc(NC(=O)c2ccccc2)cc1	6.31 µM [falling, partial curve]	
O=C(CCCc1c[nH]c2ccccc12)NCCc1c[nH]c2ccccc12	7.94 µM [falling, partial curve, poor fit]	
O=C1CC(N2CCc3ccccc32)C(=O)N1c1ccccc1 (centres undefined)	10 µM [falling, partial curve, poor fit]	
Cc1ccc(S(=O)(=O)NNC2=NCCCCC2)cc1	11.2 µM [falling, partial curve]	
COc1ccc2c(c1)[nH]c1c(N3CCN(Cc4ccc5c(c4)OCO5)CC3)ncnc12	35.5 µM [falling, single point]	
c1cncc(CSc2ccc(-c3ccc4c(c3)OCO4)nn2)c1	35.5 µM [falling, single point]	
Cc1ccc2c(c1)N(CC(=O)N1CCN(c3nc4ccccc4s3)CC1)C(=O)C(C)O2 (centres undefined)	20.6 µM [falling, partial curve, poor fit]	
Cc1ccnc(NC(=O)c2ccc(Br)s2)c1	12.6 µM [falling, single point]	
COc1cccc(C(=O)NCCN2CCN(c3ccccc3)CC2)c1	11.2 µM [rising, single point]	
COC(=O)Nc1c(-c2ccccc2)nc2ccc(Cl)cn12	11.2 µM [falling, partial curve]	
Cc1csc(C(C#N)C(=O)c2cc3ccccc3o2)n1 (centres undefined)	2 µM [falling, partial curve, poor fit]	
COC(=O)c1cc(NC(=O)CN(c2cccc(OC)c2)S(=O)(=O)c2ccccc2)ccc1Cl	20.6 µM [falling, partial curve, poor fit]	20.6 µM [rising, single point]
